The assay has as its target T1, human protein hAMSH (human) (UniProt O95630).
T1 sequence: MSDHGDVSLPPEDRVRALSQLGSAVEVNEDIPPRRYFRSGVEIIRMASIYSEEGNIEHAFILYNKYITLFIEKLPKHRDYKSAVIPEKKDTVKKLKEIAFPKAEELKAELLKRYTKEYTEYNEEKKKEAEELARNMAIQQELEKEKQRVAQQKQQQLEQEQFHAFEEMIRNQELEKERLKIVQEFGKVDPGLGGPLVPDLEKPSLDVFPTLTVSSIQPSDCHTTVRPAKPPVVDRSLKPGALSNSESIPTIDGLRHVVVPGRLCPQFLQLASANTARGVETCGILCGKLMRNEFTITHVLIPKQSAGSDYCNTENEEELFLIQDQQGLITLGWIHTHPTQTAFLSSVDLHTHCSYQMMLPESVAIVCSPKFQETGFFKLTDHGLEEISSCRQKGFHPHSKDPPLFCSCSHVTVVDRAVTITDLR
The assay can be described thus: Far-Western screen of a human cDNA expression library with the GST-STAM SH3 probe.

Amino acid sequences for entries named in this document (tags omitted). A change or cut given only in a name is not applied to a line headed by its entry. Residues count along the entry.
UniProt Q92783, residues 210-269: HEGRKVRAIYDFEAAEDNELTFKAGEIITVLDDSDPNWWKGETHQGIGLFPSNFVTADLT

Results are given in words; binding and its absence hold for the method and conditions named. Some binding calls cover weakened binding; strength is not graded here.

Take “chimera of the SH3 domain of STAM and glutathione-S-transferase (GST) (from UniProt Q92783 210-269)”: the binding entry is on record as “binds”.
